One assay has as its target Trim17-GFP (mouse) (UniProt Q7TPM3). Nature of the assay: co-IP.
The next assay addresses Flag-Trim39 (mouse) (UniProt Q9ESN2). Kind of assay: co-IP.

Amino acid sequences for entries named in this document (tags omitted).
UniProt Q7TPM3: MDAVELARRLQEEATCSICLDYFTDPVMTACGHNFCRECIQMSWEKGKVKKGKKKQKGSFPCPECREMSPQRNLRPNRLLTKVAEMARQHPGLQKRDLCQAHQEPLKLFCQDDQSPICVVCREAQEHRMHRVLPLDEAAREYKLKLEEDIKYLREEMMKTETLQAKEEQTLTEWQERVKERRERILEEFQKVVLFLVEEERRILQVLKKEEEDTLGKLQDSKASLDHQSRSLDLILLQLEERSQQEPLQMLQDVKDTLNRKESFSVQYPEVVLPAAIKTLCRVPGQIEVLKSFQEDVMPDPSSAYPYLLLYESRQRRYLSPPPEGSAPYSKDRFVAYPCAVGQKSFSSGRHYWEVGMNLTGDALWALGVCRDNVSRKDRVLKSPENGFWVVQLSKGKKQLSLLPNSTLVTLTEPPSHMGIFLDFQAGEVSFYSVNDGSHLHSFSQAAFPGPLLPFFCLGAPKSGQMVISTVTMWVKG
UniProt Q9ESN2: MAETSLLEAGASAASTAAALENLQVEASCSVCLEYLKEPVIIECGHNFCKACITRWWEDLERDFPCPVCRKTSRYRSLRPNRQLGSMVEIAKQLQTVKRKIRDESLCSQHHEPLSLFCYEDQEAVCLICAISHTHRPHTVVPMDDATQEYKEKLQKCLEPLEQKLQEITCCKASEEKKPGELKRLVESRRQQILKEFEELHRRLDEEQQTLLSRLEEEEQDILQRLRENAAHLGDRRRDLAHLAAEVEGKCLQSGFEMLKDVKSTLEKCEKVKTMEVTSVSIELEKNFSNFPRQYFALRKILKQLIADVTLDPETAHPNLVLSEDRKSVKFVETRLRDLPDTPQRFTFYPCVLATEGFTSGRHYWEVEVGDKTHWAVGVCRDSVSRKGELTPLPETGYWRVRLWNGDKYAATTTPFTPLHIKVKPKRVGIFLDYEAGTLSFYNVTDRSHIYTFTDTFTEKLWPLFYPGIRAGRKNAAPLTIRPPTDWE

This passage reports binding results from doi:10.1101/2020.09.29.317958.

These are yes or no findings as the source states them, for the method shown. In cells and extracts the contact can be indirect. Some binding calls cover weakened binding; strength is not graded here.

As for Flag-Trim39 (from UniProt Q9ESN2 1-488), the binding entry with Trim17-GFP (mouse) is given as “binds”.

With Trim17-GFP (from UniProt Q7TPM3 1-477), in the assay with Flag-Trim39 (mouse), the binding entry was “binds”.
